Among the data in publication doi:10.1101/2025.09.08.674995 are binding values, retold here.

These are yes or no findings as the source states them, for the method shown. In cells and extracts the contact can be indirect. A result given as binding can be weak or reduced; the word gives no strength. Tags and fused reporters may be left off the sequences shown.

This assay addresses Xenopus tropicalis PP2A-Cα (PPP2CA), His6-tagged (X. tropicalis) (UniProt Q6P365). The assay is described as follows: tandem affinity co-purification.

B1: Xenopus tropicalis PP2A-B55ο (PPP2R2D), Twin-strep-tagged (protein, UniProt Q6DIY3 1-447)
chain: MAGVGGGNDFQWCFSQVKGAIDEDVAEADIISTVEFNCSGDLLATGDKGGRVVIFQREQENKSRPHSRGEYNVYSTFQSHEPEFDYLKSLEIEEKINKIRWLPQQNAAHFLLSTNDKTIKLWKISERDKRVEGYNLKDDDGRLRDPFRITSLRVPILKPMDLMVEASPRRIFANAHTYHINSISVNSDHETYLSADDLRINLWHLEITDRSFNIVDIKPANMEELTEVITAAEFHPHHCNVFVYSSSKGTIRLCDMRDSALCDRHSKFFEEPEDPSSRSFFSEIISSISDVKFSNSGRYMMTRDYLSVKVWDLNMESRPVETYQVHEYLRSKLCSLYENDCIFDKFECCWNGSDSAIMTGSYNNFFRMFDRNTRRDITLEASRESSKPRAILKPRKVCTGGKRKKDEINVDSLDFNKKILHTAWHPTDNIIAVAATNNLYIFQDKVN
Take B1: the binding result is listed as “binds”.
